Test results: PubChem BioAssay AID504847 (National Center for Advancing Translational Sciences (NCATS), 2011)
The campaign covered roughly 400,000 compounds. About 3,700 (0.93%) were called active. The inconclusive results got no clear call from the source; some entries with a clear call stand among them for comparison. The call rests on the fitted dose curve; in most records, active means well fitted inhibition curve with a large enough effect; inconclusive means small, poorly fitted or top-dose-only effect, or another doubt; inactive means no such curve, though single readings can be large or run the other way. A potency beside an inconclusive call is a rough fit, not a confirmed value.

The chains behind the UniProt entries cited, without tags or fusion partners. Where a name states a change or a piece, a line headed by the entry shows the natural chain unless it says otherwise.
UniProt P11473: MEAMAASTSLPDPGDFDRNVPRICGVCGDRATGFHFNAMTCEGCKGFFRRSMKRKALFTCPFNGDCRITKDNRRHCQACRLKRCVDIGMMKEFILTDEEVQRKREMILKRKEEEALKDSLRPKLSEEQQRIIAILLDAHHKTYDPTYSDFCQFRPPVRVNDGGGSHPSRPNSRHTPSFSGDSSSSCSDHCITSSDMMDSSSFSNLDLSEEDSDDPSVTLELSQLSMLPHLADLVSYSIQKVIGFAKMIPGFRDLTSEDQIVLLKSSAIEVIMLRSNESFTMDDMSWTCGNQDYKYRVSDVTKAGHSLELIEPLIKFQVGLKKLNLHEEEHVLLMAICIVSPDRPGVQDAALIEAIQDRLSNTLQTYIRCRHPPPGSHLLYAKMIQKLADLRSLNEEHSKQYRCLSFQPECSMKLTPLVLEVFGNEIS

The compounds below were run against Vitamin D3 receptor (Homo sapiens) (UniProt P11473) (assay: Inhibitors of the vitamin D receptor (VDR): qHTS). Settings: VDR-SRC2-3 peptide fluorescence polarization, 2 h; max response, negative = inhibition: stronger effect = lower value.
Outline: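 Reagent solutions, kept cold and dark, are dispensed first; compounds are then pinned in at 23 nl, plates briefly spun, and incubated 2 h at ambient temperature. Inhibition of VDR–SRC2-3 peptide binding is read by fluorescence polarization.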
On the % scale 0 is the no-effect control and ±100 the full control effect; potency means the concentration at half of the fitted maximal effect.

| Structure (SMILES) | Potency | max response, negative = inhibition |
| --- | --- | --- |
| CCN(CC)c1ccc(N=Cc2ccc(N(CC)CC)cc2O)cc1 | active: 50.1 µM | – |
| Cn1c(Cn2c(=O)sc3ccccc32)nnc1SCC(=O)NCc1ccc2c(c1)OCO2 | inconclusive: 4.47 µM [inhibitor, full curve, poor fit] | – |
| COc1cc(OC)c(C2CC(=O)Nc3ccc4ccccc4c32)cc1OC (centres undefined) | inconclusive: 100 µM [inhibitor, single point] | – |
| COC1=C(OC)C(=O)C(Sc2ccc3ccccc3c2)=CC1=O | active: 8.91 µM | – |
| Cc1cc(S(=O)(=O)NC2CCCCC2)ccc1-n1cnnn1 | inconclusive: 89.1 µM [inhibitor, single point] | – |
| Cn1c(=O)c([N+](=O)[O-])c(Oc2ccccc2)c2ccccc21 | inconclusive: 25.1 µM [inhibitor, single point] | – |
| Cc1ccc(S(=O)(=O)N(C)C)cc1NC(=O)COC(=O)/C=C/c1cccs1 | inconclusive: 89.1 µM [inhibitor, partial curve, poor fit] | – |
| O=c1c(-c2ccccc2)coc2cc(O)cc(O)c12 | active: 28.2 µM | – |
| Cc1nc2cnc(Oc3cccc(Cl)c3)nc2n(Cc2ccc(F)cc2)c1=O | inconclusive: 28.2 µM [inhibitor, partial curve, poor fit] | – |
| CCN(CC)c1ccc(C(=S)N2CCN(c3ccccc3)CC2)cc1 | – | inactive: -7.36% |
| COc1cc(/C=C(\C#N)C(=O)Nc2cccnc2)ccc1OC(C)C | inconclusive: 39.8 µM [inhibitor, single point] | – |
| C=C1c2ccccc2O[C@H](C(=O)OCC)[C@@H]1CC(C)(C)c1ccccc1 | inconclusive: 126 µM [inhibitor, single point] | – |
| CC(C)c1ccc(/C=N/NC(=O)c2ccccn2)cc1 | inconclusive: 89.1 µM [inhibitor, partial curve, poor fit] | – |
| CC(=O)Nc1ccc(NC(=O)C2(C)CC2(Cl)Cl)cc1 (centres undefined) | active: 79.4 µM | – |
| Cn1c(=NC(=O)CCl)sc2ccccc21 | – | inactive: 5.81% |
| O=c1c(-c2ccc(F)cc2)nc2cnc(Nc3ccccc3)nc2n1C[C@H]1CCCO1 | – | inactive: 1.02% |
| Cc1ccc(S(=O)(=O)N2CCN(Cc3ccccc3Cl)CC2)cc1 | inconclusive: 89.1 µM [inhibitor, single point] | – |
| Cc1ccc(-c2csc(NC(=O)CSc3nc(C)cc(=O)[nH]3)n2)cc1 | inconclusive: 89.1 µM [inhibitor, single point] | – |
| Cc1cccc(CC(=O)NCC(=O)NCc2cc(=O)n(C)c(=O)n2C)c1 | inconclusive: 22.4 µM [inhibitor, partial curve, poor fit] | – |
| CS(=O)(=O)c1ccc(C(=O)OCC(=O)NC(=O)NC2CCCCC2)cc1[N+](=O)[O-] | inconclusive: 56.2 µM [inhibitor, partial curve, poor fit] | – |
| COc1ccccc1NC(=O)c1ccc(NC(=O)CSc2n[nH]c(N)n2)cc1 | – | inactive: -17.7% |
| O=[N+]([O-])c1ccc(O)c(/C=N/n2cnc3ccccc32)c1 | – | inactive: -3.13% |

| Structure (SMILES) | Potency | max response, negative = inhibition |
| --- | --- | --- |
| CC1CC1c1ccc(/C=C(\C#N)C(=O)Nc2cc(Cl)ccc2Cl)o1 (centres undefined) | inconclusive: 100 µM [inhibitor, single point] | – |
| COc1ccc(C(Nc2ccccn2)c2ccc3ccc(C)nc3c2O)cc1C (centres undefined) | inconclusive: 15.8 µM [inhibitor, full curve, poor fit] | – |
| COc1ccc(-c2nc3cnc(N4CCOCC4)nc3n(CCc3ccccc3)c2=O)cc1 | inconclusive: 89.1 µM [inhibitor, partial curve, poor fit] | – |
| COCCn1c(=O)c(-c2ccccc2)nc2cnc(Oc3cccc(Cl)c3)nc21 | inconclusive: 79.4 µM [inhibitor, single point] | – |
| CSCC[C@H](NC(=O)[C@H](Cc1c[nH]c2ccccc12)NC(=O)CNC(=O)[C@H](Cc1ccc(O)cc1)NC(=O)[C@H](C)NC(=O)[C@H](CCC(=O)O)NC(=O)[C@H](CCC(=O)O)NC(=O)[C@H](CCC(=O)O)NC(=O)[C@H](CCC(=O)O)NC(=O)[C@H](CCC(=O)O)NC(=O)[C@H](CC(C)C)NC(=O)[C@H](Cc1c[nH]c2ccccc12)NC(=O)[C@@H]1CCCN1C(=O)CNC(=O)[C@@H]1CCC(=O)N1)C(=O)N[C@@H](CC(=O)O)C(=O)N[C@@H](Cc1ccccc1)C(=O)NCC(=O)O | – | inactive: 7.37% |
| O=C(CCC(=O)OCC(=O)c1ccc([N+](=O)[O-])cc1)Nc1ccccc1Cl | inconclusive: 35.5 µM [inhibitor, partial curve, poor fit] | – |
| O=C(Nc1ccc(Cl)c(Cl)c1)Nc1nccs1 | – | inactive: 3.21% |
| Cc1cccc(C)c1NC(=O)C1CCCN1S(=O)(=O)c1ccc2c(c1)n(C)c(=O)c(=O)n2C (centres undefined) | – | inactive: -8.03% |
| COc1cccc(OC)c1C(=O)Oc1ccc2c(c1)O/C(=C\c1ccncc1)C2=O | inconclusive: 39.8 µM [inhibitor, full curve, poor fit] | – |
| O=C(NCCc1c[nH]c2ccccc12)c1ccc(F)cc1F | – | inactive: 19.6% |
| O=C(OCC(=O)C12CC3CC(CC(C3)C1)C2)c1ccc(O)cc1 | inconclusive: 89.1 µM [inhibitor, partial curve, poor fit] | – |
| CCC(C)NC(=O)C1(NC(=O)Nc2ccccc2)CCCCC1 (centres undefined) | inconclusive: 31.6 µM [inhibitor, single point] | – |
| COc1cc(-c2nc(S(=O)(=O)c3ccc(C)cc3)c(N3CCOCC3)o2)cc(OC)c1OC | active: 79.4 µM | – |
| COC(=O)C(Cc1ccc(O)cc1)NC(=O)CCc1nc2ccccc2s1 (centres undefined) | – | inactive: -8.86% |
| CSc1ccccc1NC(=O)CCS(=O)(=O)c1nc(-c2ccc3c(c2)OCO3)cc(C(F)(F)F)n1 | inconclusive: 31.6 µM [inhibitor, partial curve, poor fit] | – |
| c1cn(-c2ncnc3ccc(-c4ccoc4)cc23)cn1 | active: 31.6 µM | – |
| N#Cc1c(-c2ccccc2)cc(-c2ccccc2)nc1SCC(O)CS(=O)(=O)Cc1ccc(Cl)cc1 (centres undefined) | active: 28.2 µM | – |
| O=C(c1cnccn1)N1CCC2(CCCN(c3ncccn3)C2)CC1 | – | inactive: -11.5% |
| Cc1c(NC(=O)c2cccs2)cccc1-c1nc2ccccc2s1 | – | inactive: 1.31% |
| CCc1ccc(NC(=O)CSc2nc3ccsc3c(=O)n2CCC(=O)O)cc1 | inconclusive: 35.5 µM [inhibitor, partial curve, poor fit] | – |
| Cc1[nH]n(-c2ccccc2)c(=O)c1CCO | – | inactive: -1.82% |
| CCOC(=O)c1c(C)[nH]c(C(=O)COC(=O)/C=C/c2ccc3c(c2)OCO3)c1C | inconclusive: 89.1 µM [inhibitor, partial curve, poor fit] | – |

Structures listed so far containing a furan ring, fused or not (2):

| Structure (SMILES) | Potency | max response, negative = inhibition |
| --- | --- | --- |
| CC1CC1c1ccc(/C=C(\C#N)C(=O)Nc2cc(Cl)ccc2Cl)o1 (centres undefined) | inconclusive: 100 µM [inhibitor, single point] | – |
| c1cn(-c2ncnc3ccc(-c4ccoc4)cc23)cn1 | active: 31.6 µM | – |

Record cards, as listed above.
`COC(=O)C(Cc1ccc(O)cc1)NC(=O)CCc1nc2ccccc2s1` (centres undefined) is listed with max response, negative = inhibition: inactive: -8.86%
`COc1cc(-c2nc(S(=O)(=O)c3ccc(C)cc3)c(N3CCOCC3)o2)cc(OC)c1OC` is listed with Potency: active: 79.4 µM

Continued:

| Structure (SMILES) | Potency | max response, negative = inhibition |
| --- | --- | --- |
| Cc1ccc(S(=O)(=O)/N=C(\Sc2ccccc2)c2ccccc2)cc1 | inconclusive: 70.8 µM [inhibitor, partial curve, poor fit] | – |
| O=C1CSC(=NC2CCCCC2)N1 | inconclusive: 89.1 µM [inhibitor, single point] | – |
| Cc1cc(C)c2c(N)c(C(=O)NCc3ccco3)sc2n1 | – | inactive: -4.57% |
| SC(COCc1ccccc1)CN1CCN(Cc2ccc3c(c2)OCO3)CC1 (centres undefined) | – | inactive: -12.8% |
| CC(=O)C1=C(O)C(=O)N(CCN2CCOCC2)C1c1ccccc1 (centres undefined) | – | inactive: 26.5% |
| O=C(O)C1C2CCC(CC2)C1C(=O)O (centres undefined) | – | inactive: 7.59% |
| CCOc1ccc(N(CC(=O)NCc2cccnc2)S(=O)(=O)c2ccc(F)cc2)cc1 | – | inactive: -9.86% |
| CN(C(Cc1ccc(OS(=O)(=O)c2cccc3cnccc23)cc1)C(=O)N1CCN(c2ccccc2)CC1)S(=O)(=O)c1cccc2cnccc12 (centres undefined) | inconclusive: 79.4 µM [inhibitor, single point] | – |
| CCOC(=O)C1Nc2ccc(C(F)(F)F)cc2C2c3ccccc3CC12 (centres undefined) | active: 50.1 µM | – |
| CCOc1ccc(-c2nc(CSc3nnc(C)s3)cs2)cc1OC | inconclusive: 10 µM [inhibitor, partial curve, poor fit] | – |
| CCOC(=O)C1(C)C=C(Nc2cccc(C(=O)O)c2)C(=O)N1c1ccccc1 (centres undefined) | inconclusive: 79.4 µM [inhibitor, partial curve, poor fit] | – |
| Brc1ccccc1-n1nnc(-c2ccnc3ccccc23)n1 | inconclusive: 79.4 µM [inhibitor, partial curve, poor fit] | – |
| CC(NC(=O)c1ccc(Cn2cc([N+](=O)[O-])cn2)cc1)c1ccccc1 (centres undefined) | inconclusive: 89.1 µM [inhibitor, partial curve, poor fit] | – |
| Cc1ccc(NC(=O)COc2cccc(/C=C3\SC(=S)N(CCC(=O)O)C3=O)c2)cc1Cl | inconclusive: 20 µM [inhibitor, single point] | – |
| O=C1OC(Nc2nccs2)c2ccccc21 (centres undefined) | inconclusive: 10 µM [inhibitor, partial curve, poor fit] | – |
| CC(=O)N(C)c1ccc(NC(=O)Nc2ccc(Cl)cc2)cc1 | inconclusive: 12.6 µM [inhibitor, partial curve, poor fit] | – |
| CC(=O)C1=C(O)C(=O)N(CCC(=O)O)C1c1ccccc1Cl (centres undefined) | – | inactive: -8.55% |
| C/C(=N\NC(=S)Nc1ccccc1C)c1ccc(O)cc1 | inconclusive: 89.1 µM [inhibitor, single point] | – |
| COc1cc(/C=C(/C(=O)c2cccs2)c2nc3ccccc3[nH]2)ccc1O | inconclusive: 56.2 µM [inhibitor, partial curve, poor fit] | – |
| O=C(Oc1c(-c2ccccc2)c(=O)n2c3c(cccc13)CC2)c1cccc([N+](=O)[O-])c1 | inconclusive: 39.8 µM [inhibitor, partial curve, poor fit] | – |
